{"source": "the supplement of paper PMC3334620", "note": "Over roughly 33,000 sequences, “E-score (-0.5 to 0.5)” has its median near -0.016; the highest 2% begin near 0.3. The list shows a part of the results."}
{"molecular_target": "T1, Yer184c (UniProt P39961)", "T1 sequence": "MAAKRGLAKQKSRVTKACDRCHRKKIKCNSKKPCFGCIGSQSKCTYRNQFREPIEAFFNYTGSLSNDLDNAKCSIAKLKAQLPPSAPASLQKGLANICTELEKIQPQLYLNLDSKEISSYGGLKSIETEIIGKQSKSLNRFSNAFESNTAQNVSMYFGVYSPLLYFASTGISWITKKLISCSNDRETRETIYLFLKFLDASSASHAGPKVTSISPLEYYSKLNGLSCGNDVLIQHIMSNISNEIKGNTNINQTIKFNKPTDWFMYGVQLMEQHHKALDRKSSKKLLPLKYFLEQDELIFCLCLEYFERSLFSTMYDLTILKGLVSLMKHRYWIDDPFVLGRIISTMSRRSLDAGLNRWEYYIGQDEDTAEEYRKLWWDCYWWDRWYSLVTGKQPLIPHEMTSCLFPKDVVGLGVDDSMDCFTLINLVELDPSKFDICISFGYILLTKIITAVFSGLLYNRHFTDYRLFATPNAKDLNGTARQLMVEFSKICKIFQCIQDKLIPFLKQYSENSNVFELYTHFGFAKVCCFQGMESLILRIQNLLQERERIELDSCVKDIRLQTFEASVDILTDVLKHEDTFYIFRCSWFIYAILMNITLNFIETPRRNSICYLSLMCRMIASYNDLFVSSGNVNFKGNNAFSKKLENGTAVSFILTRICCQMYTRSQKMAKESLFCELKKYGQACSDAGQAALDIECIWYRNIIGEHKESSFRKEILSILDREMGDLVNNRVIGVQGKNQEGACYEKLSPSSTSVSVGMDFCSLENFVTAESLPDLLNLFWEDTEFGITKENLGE", "test": "PBM E-score (8-mer binding enrichment) (E-score (-0.5 to 0.5)); higher = stronger / more preferred TF binding", "details": "protein concentration: 100 nM; construct: GST-full length", "how_it_was_run": "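GST-tagged yeast TFs (full-length or DNA-binding domain) were made by PURExpress in vitro transcription/translation and applied at about 100-200 nM to universal all-10-mer Agilent arrays. The arrays were made double-stranded by primer extension, on fresh or once-stripped slides. Bound protein was detected with fluorescent anti-GST, and scans were normalised with masliner. Each ungapped eight-base word, pooled with its reverse complement, received an E-score (modified Wilcoxon-Mann-Whitney statistic) from the Universal PBM Analysis Suite.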"}
{"sequence": "CATGGTGA", "PBM E-score": -0.0876}
{"sequence": "AGGGTGGC", "PBM E-score": -0.163}
{"sequence": "CGCTCGAG", "PBM E-score": 0.0363}
{"sequence": "ACTCGCCT", "PBM E-score": -0.147}
{"sequence": "CTACTCCA", "PBM E-score": -0.24}
{"sequence": "GACTGAGA", "PBM E-score": 0.0369}
{"sequence": "ACCGACCT", "PBM E-score": -0.0856}
{"sequence": "CTCCACGC", "PBM E-score": -0.169}
{"sequence": "CCCTAGTA", "PBM E-score": -0.0683}
{"sequence": "GATAACAA", "PBM E-score": 0.261}
{"sequence": "GAAGACTA", "PBM E-score": 0.0608}
{"sequence": "GATGGCCC", "PBM E-score": -0.186}
{"sequence": "GCTACTTA", "PBM E-score": -0.201}
{"sequence": "ACTAACGG", "PBM E-score": 0.132}
{"sequence": "ATGGCGTA", "PBM E-score": -0.111}
{"sequence": "CCAATGTC", "PBM E-score": -0.109}
{"sequence": "ACCGGACC", "PBM E-score": 0.29}
{"sequence": "CATGGCTC", "PBM E-score": -0.151}
{"sequence": "GGTCAAAA", "PBM E-score": -0.00015}
{"sequence": "CCCAGGGC", "PBM E-score": -0.298}
{"sequence": "CATGTGAA", "PBM E-score": -0.0476}
{"sequence": "GGAATGTA", "PBM E-score": 0.123}
{"sequence": "GACTCTGC", "PBM E-score": -0.0367}
{"sequence": "CTACCTAA", "PBM E-score": 0.0605}
{"sequence": "AGCTGGAC", "PBM E-score": -0.0983}
{"sequence": "AAAACTAC", "PBM E-score": 0.246}
{"sequence": "AACAGGAT", "PBM E-score": -0.0981}
{"sequence": "GGGCCAAC", "PBM E-score": -0.0886}
{"sequence": "CTTTGGCA", "PBM E-score": -0.213}
{"sequence": "AAAAGGAA", "PBM E-score": 0.23}
{"sequence": "AGTGGTTG", "PBM E-score": 0.0216}
{"sequence": "ACGGCGTG", "PBM E-score": -0.0116}
{"sequence": "CGAGTTTC", "PBM E-score": -0.00564}
{"sequence": "GAATAGCC", "PBM E-score": -0.0116}
{"sequence": "GAAGGACC", "PBM E-score": -0.0391}
{"sequence": "ATGAACAA", "PBM E-score": 0.154}
{"sequence": "AACAGCGA", "PBM E-score": -0.129}
{"sequence": "GAGGCTAC", "PBM E-score": -0.152}
{"sequence": "AATAGGCA", "PBM E-score": 0.0624}
{"sequence": "GGACGCGA", "PBM E-score": -0.178}
{"sequence": "AGCTGTAT", "PBM E-score": -0.101}
{"sequence": "ACCTTACC", "PBM E-score": -0.0169}
{"sequence": "TAGCAACA", "PBM E-score": 0.062}
{"sequence": "CCGCTAGC", "PBM E-score": -0.245}
{"sequence": "AATGCCCG", "PBM E-score": -0.121}
{"sequence": "AAGCACCA", "PBM E-score": -0.224}
{"sequence": "ACCAATAG", "PBM E-score": -0.149}
{"sequence": "CCTCTGCC", "PBM E-score": -0.303}
{"sequence": "AGTGCTTG", "PBM E-score": -0.109}
{"sequence": "CGAATGTC", "PBM E-score": -0.0151}
{"sequence": "ATTTGCCG", "PBM E-score": 0.306}
{"sequence": "AACATACG", "PBM E-score": 0.129}
{"sequence": "CTCTCCTA", "PBM E-score": -0.0322}
{"sequence": "TCCATGCA", "PBM E-score": 0.122}
{"sequence": "ACTCTACA", "PBM E-score": -0.143}
{"sequence": "AGCACGCT", "PBM E-score": -0.23}
{"sequence": "CACTCCGA", "PBM E-score": 0.0993}
{"sequence": "ACTGTAGG", "PBM E-score": 0.0897}
{"sequence": "ACGAAGGA", "PBM E-score": 0.0446}
{"sequence": "AAAGGTCG", "PBM E-score": -0.226}
{"sequence": "CTTACGTC", "PBM E-score": -0.178}
{"sequence": "TCATTAAA", "PBM E-score": 0.343}
{"sequence": "TCTTAAAA", "PBM E-score": 0.0893}
{"sequence": "GTTATGGA", "PBM E-score": 0.0672}
{"sequence": "CTTAGTAA", "PBM E-score": 0.148}
{"sequence": "AGGCGACC", "PBM E-score": -0.25}
{"sequence": "GATCATCA", "PBM E-score": -0.0428}
{"sequence": "ACAGAAGT", "PBM E-score": 0.072}
{"sequence": "TCACCTGA", "PBM E-score": -0.148}
{"sequence": "ATCGATCA", "PBM E-score": -0.0651}
{"sequence": "CCGTAAAC", "PBM E-score": 0.203}
{"sequence": "CCATGGAC", "PBM E-score": -0.163}
{"sequence": "GCCAGCCC", "PBM E-score": -0.338}
{"sequence": "CCGCAGGA", "PBM E-score": -0.0578}
{"sequence": "CGAGCCTC", "PBM E-score": -0.218}
{"sequence": "ACGCCTCT", "PBM E-score": -0.32}
{"sequence": "CGCCGATA", "PBM E-score": 0.257}
{"sequence": "ACCGAAGC", "PBM E-score": 0.1}
{"sequence": "ATCGCGCG", "PBM E-score": 0.183}
{"sequence": "ACGAAGGC", "PBM E-score": -0.285}
{"sequence": "GGCCTGAC", "PBM E-score": -0.0184}
{"sequence": "ACATTAGG", "PBM E-score": -0.148}
{"sequence": "CACTGGAA", "PBM E-score": -0.118}
{"sequence": "GACAAGCA", "PBM E-score": -0.0476}
{"sequence": "AAGCTCGT", "PBM E-score": -0.0959}
{"sequence": "ATTCTTTC", "PBM E-score": 0.0708}
{"sequence": "GAGCGAGA", "PBM E-score": 0.177}
{"sequence": "ACTGGAAA", "PBM E-score": 0.0217}
{"sequence": "ATGTGGGA", "PBM E-score": -0.189}
{"sequence": "AATTTGCG", "PBM E-score": 0.0284}
{"sequence": "GCTGTACA", "PBM E-score": -0.102}
{"sequence": "GAACATTC", "PBM E-score": 0.102}
{"sequence": "GAGGCGAA", "PBM E-score": 0.0342}
{"sequence": "CTTGACAA", "PBM E-score": 0.152}
